Measured values published in paper PMC10082770.
These are yes or no findings as the source states them, for the method shown. Binding seen in cells or lysates may run through a third protein. Some entries that bind do so weakly or less than the wild type. For some assays here: Tags and fused reporters may be left off the sequences shown.

Sequences of proteins named here, by UniProt entry; tags and fusion partners are left off.
UniProt Q9UMS4: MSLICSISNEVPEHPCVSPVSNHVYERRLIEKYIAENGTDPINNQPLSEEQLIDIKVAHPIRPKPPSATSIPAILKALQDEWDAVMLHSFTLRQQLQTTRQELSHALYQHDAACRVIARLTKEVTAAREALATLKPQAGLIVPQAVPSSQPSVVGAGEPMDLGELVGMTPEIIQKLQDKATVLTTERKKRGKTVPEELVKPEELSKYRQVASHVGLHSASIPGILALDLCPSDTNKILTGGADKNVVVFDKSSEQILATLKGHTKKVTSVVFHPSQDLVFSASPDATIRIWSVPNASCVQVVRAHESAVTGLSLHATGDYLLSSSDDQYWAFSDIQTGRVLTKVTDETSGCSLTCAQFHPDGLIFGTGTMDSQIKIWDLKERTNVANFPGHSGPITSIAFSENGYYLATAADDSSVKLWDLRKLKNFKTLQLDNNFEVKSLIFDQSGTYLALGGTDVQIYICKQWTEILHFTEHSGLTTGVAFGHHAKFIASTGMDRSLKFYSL

Tests used:
[1] = biological target: Flag-PRPF19 (Pre-mRNA processing factor 19) (UniProt Q9UMS4); test: co-IP; DLD1 and HCT15 cells co-transfected with Flag-PRPF19 and HA-MYL9 for 48 h, MG132 for 5 h; IP anti-Flag with blot anti-HA, and IP anti-HA with blot anti-Flag
[2] = biological target: PRPF19 (endogenous) (human (endogenous in DLD1, HCT15, HCT116)) (UniProt Q9UMS4); test: co-IP; endogenous proteins; DLD1, HCT15 and HCT116 cells, MG132 for 5 h; lysates immunoprecipitated with anti-IgG, anti-MYL9 or anti-PRPF19, then immunoblot

| binding [1] | binding [2] | Binder |
| --- | --- | --- |
| binds | – | HA-MYL9 (myosin light chain 9) (protein, UniProt P24844 1-172) MSSKRAKAKTTKKRPQRATSNVFAMFDQSQIQEFKEAFNMIDQNRDGFIDKEDLHDMLASLGKNPTDEYLEGMMSEAPGPINFTMFLTMFGEKLNGTDPEDVIRNAFACFDEEASGFIHEDHLRELLTTMGDRFTDEEVDEMYREAPIDKKGNFNYVEFTRILKHGAKDKDD |
| – | binds | MYL9 (endogenous) (protein, UniProt P24844 1-172) MSSKRAKAKTTKKRPQRATSNVFAMFDQSQIQEFKEAFNMIDQNRDGFIDKEDLHDMLASLGKNPTDEYLEGMMSEAPGPINFTMFLTMFGEKLNGTDPEDVIRNAFACFDEEASGFIHEDHLRELLTTMGDRFTDEEVDEMYREAPIDKKGNFNYVEFTRILKHGAKDKDD |
